According to PubChem BioAssay AID540256 (National Center for Advancing Translational Sciences (NCATS), 2011):
Among all 300,000 compounds or so, about 3,700 (1.2%) were called active. Inconclusive results, whose numbers are uncertain, are shown with a selection of clear calls. Calls follow the shape of the full dose curve; tested in HEK293 cells. Potencies of inconclusive entries are doubtful fits and often do not repeat.

Assay: qHTS for Inhibitors of binding or entry into cells for Lassa Virus; also: nearly all actives have a fitted effect of over 50% in size
Details: Lassa virus pseudotype entry inhibition, cell reporter; activity change, negative = inhibition: at 37.9 µM (top of the series) unless noted
% is scaled to controls: 0 for no effect and ±100 for the full control effect; potency is read from the fitted curve at half-maximal effect.

SMILES	Potency	activity change, negative = inhibition
Cn1c(SCc2ccc(C(C)(C)C)cc2)nnc1C1COc2ccccc2O1 (stereo unspecified)	inconclusive: 3.16 µM [inhibitor, single point]	
CN(C)CCCNc1ncnc2c1cnn2Cc1ccccc1Cl		inactive: -3.56% [at 46.1 µM]
COC(=O)c1c(C)[nH]c(-c2csc(N)n2)c1C	inconclusive: 29.1 µM [activator, single point]	
CCN(CC)CCCNC(=O)c1ccc2nc(CCc3ccccc3)oc2c1	inconclusive: 10 µM [activator, single point]	
CN(C)S(=O)(=O)c1cccc(NC(=O)c2cc(-c3cccs3)nc3ccccc23)c1	inconclusive: 11.6 µM [inhibitor, partial curve, poor fit]	
O=S(=O)(c1cccc(Cl)c1)c1nnn2c1nc(NC1CCCCCC1)c1sccc12	inconclusive: 35.5 µM [activator, single point]	
Fc1ccccc1CSc1nnc(-c2cnccn2)n1Cc1ccco1		inactive: 17%
CCOc1ccccc1N1CCN(C(=S)NCc2ccccc2)CC1	inconclusive: 35.5 µM [inhibitor, single point]	
COC(=O)/C(=C1/Oc2cc(C)oc(=O)c2S1)C(F)(F)F	inconclusive: 35.5 µM [inhibitor, single point]	
O=C(Nc1ccc2c(c1)N(C1CCCC1)C(=O)c1ccccc1S2)c1ccc(F)cc1	inconclusive: 2 µM [inhibitor, full curve, poor fit]	
O=C(/C=C/c1c(Cl)nc2ccccn12)N1CCN(c2ccccc2F)CC1	inconclusive: 10 µM [inhibitor, partial curve, poor fit]	
C=C1SC(=Nc2ccccc2Cl)N(C(=O)c2sc3ccccc3c2Cl)C1(C)C	inconclusive: 5.62 µM [inhibitor, single point]	
O=C(N/N=C/c1ccc2cccc(OCc3ccccc3)c2n1)c1ccc(Br)cc1	inconclusive: 16.4 µM [inhibitor, single point]	
O=C(O)c1ccc(COc2ccc3c(c2)CCC3)cc1	inconclusive: 35.5 µM [inhibitor, single point]	
Cc1cc(NC(=O)c2ccc3nc(C)sc3c2)no1	inconclusive: 2.91 µM [activator, full curve]	
CN(CC(=O)Nc1ccc(F)cc1F)S(=O)(=O)c1ccc(C(=O)N2CCOCC2)s1		inactive: -1.2% [at 46.1 µM]
c1ccc(-c2csc(NC3CCCCC3)n2)cc1	inconclusive: 25.1 µM [inhibitor, single point]	
COc1ccc(-c2nc3ccccc3s2)cc1NC(=O)c1cc2ccccc2o1	inconclusive: 6.31 µM [inhibitor, single point]	
Cn1c(CCN2CCCCC2)nc2cc(NS(=O)(=O)c3ccc(Cl)cc3)ccc21		inactive: 6.01%
CCc1ccc(N(C(=O)c2snc(C(N)=O)c2N)C(C(=O)NCC2CCCO2)c2cccs2)cc1 (stereo unspecified)	inconclusive: 13 µM [inhibitor, partial curve]	
CC(=O)c1cc2c(cc1NC(=O)c1cc(C)nn1-c1ccccc1)OCO2	inconclusive: 2.91 µM [inhibitor, full curve]	
Oc1cccc(C2c3[nH]c4ccccc4c3CCN2Cc2ccc3c(c2)CCO3)c1 (stereo unspecified)	inconclusive: 11.2 µM [inhibitor, partial curve, poor fit]	

SMILES	Potency	activity change, negative = inhibition
CCc1nc2ccccc2n1Cc1cc(=O)n2cc(C)ccc2n1	inconclusive: 1.26 µM [activator, partial curve, poor fit]	
COc1cccc2sc(Nc3nnc(-c4cccs4)o3)nc12	inconclusive: 35.5 µM [inhibitor, single point]	
Cc1cc(/C=N/n2cnnc2)c(C)n1-c1ccc(OCc2ccc(Cl)cc2Cl)cc1	active: 7.08 µM	
Cc1ccccc1OCCNc1cc(N2CCCCC2)ccc1[N+](=O)[O-]		inactive: -17.1%
Cc1ccc(OCC(=O)Nc2ccc(CN3CCCCC3)cc2)c(C)c1	inconclusive: 0.282 µM [inhibitor, partial curve, poor fit]	
CC1CCCC(NC(=O)COC(=O)/C=C/c2ccc3c(c2)OCO3)C1C (stereo unspecified)	inconclusive: 5.62 µM [activator, partial curve, poor fit]	
Cc1cc(C)c(/C=C/c2onc(C)c2S(=O)(=O)N2CCC(C(=O)N3CCN(c4ccc(Cl)cc4)CC3)CC2)c(C)c1	inconclusive: 5.62 µM [inhibitor, single point]	
Cc1ccc(C(=O)N/C(=C\c2sccc2C)C(=O)NCc2ccco2)cc1		inactive: -2.51%
Cc1c(CCC(=O)O)c(=O)oc2cc3occ(C(C)(C)C)c3cc12	inconclusive: 7.94 µM [inhibitor, single point]	
COc1cc(N2C(=O)C=CC2=O)ccc1N1C(=O)C=CC1=O	inconclusive: 28.2 µM [inhibitor, single point]	
CCCCn1nc(NC(=O)c2cccs2)c2cc3ccccc3nc21	inconclusive: 18.3 µM [inhibitor, single point]	
Clc1ccc(SCCOCCN2CCCCC2)cc1	inconclusive: 32.6 µM [inhibitor, partial curve, poor fit]	
Cc1ncc(CO)c(/C=N/NC(=O)c2cc(Br)ccc2O)c1O	inconclusive: 20.6 µM [inhibitor, partial curve, poor fit]	
COC(=O)NNC(=O)COc1ccccc1C		inactive: -3.2%
CCC(CNC(=O)c1c(C)nn(-c2ccccc2)c1Cl)c1ccccc1 (stereo unspecified)	inconclusive: 20.6 µM [inhibitor, partial curve]	
COc1ccc(NC(=O)c2noc3c2CSc2ccccc2-3)cc1Cl	inconclusive: 8.91 µM [activator, partial curve, poor fit]	
COc1ccc(Nc2ncnc3sc(C)cc23)c(OC)c1	inconclusive: 1.26 µM [activator, single point]	
COc1cc(/C=C2\CCC(C)C3=C(c4cc(OC)c(OC)c(OC)c4)C(C#N)=C(N)OC32)cc(OC)c1OC (stereo unspecified)	active: 11.2 µM	
CCC(=O)OCCCNc1nc(-c2ccc(Cl)cc2)nc2ccccc12		inactive: -3.26% [at 46.1 µM]
COc1ccc(NC(=O)N2CCc3ccccc32)cc1	inconclusive: 29.1 µM [inhibitor, single point]	
CC(=O)N1CCCc2cc(S(=O)(=O)N3CCN(c4ccc(F)cc4)CC3)ccc21		inactive: -18.4% [at 46.1 µM]
Cc1cccn2c(=O)c(/C=C(\C#N)S(=O)(=O)c3ccccc3)c(Oc3ccc(Cl)cc3)nc12	inconclusive: 6.31 µM [inhibitor, single point]	

SMILES	Potency	activity change, negative = inhibition
Cc1ccc(CNC(=O)c2cccnc2Sc2cccc(Cl)c2)cc1	inconclusive: 11.2 µM [inhibitor, partial curve, poor fit]	
CCc1sc(C(=O)Nc2ccc(NC(C)=O)cc2)cc1C		inactive: -4.95%
O=C(C(=Cc1ccccc1)CN1CCCCC1)c1ccccc1	active: 3.55 µM	
CCOc1ccc(-c2nc(SCC(=O)Nc3ccc4c(c3)OCCO4)c(-c3ccc(F)cc3)[nH]2)cc1		inactive: -27.2% [at 46.1 µM]
O=C(Cc1csc2ccccc12)NCc1ccccc1F	inconclusive: 3.55 µM [activator, partial curve, poor fit]	
CC(C)c1ccccc1OCC(O)CN1CCN(S(=O)(=O)c2ccc([N+](=O)[O-])cc2)CC1 (stereo unspecified)	inconclusive: 14.1 µM [inhibitor, partial curve, poor fit]	
CC12CCC(O)CC1=CCC1C2CCC2(C)C(c3ccn[nH]3)CCC12 (stereo unspecified)	inconclusive: 12.6 µM [inhibitor, partial curve, poor fit]	
Cn1c(N/N=C/c2c[nH]c3ccccc23)nc2ccccc21	inconclusive: 6.31 µM [activator, partial curve, poor fit]	
CCOC(=O)C1(Cc2ccccc2)CCN(Cc2cccn2-c2nccs2)CC1		inactive: -3.83%
COC(=O)c1ccc(OCCOc2ccccc2)cc1		inactive: -22.3%
O=C(c1ccc2ncsc2c1)N1CCN(c2ccc(O)cc2)CC1	inconclusive: 3.98 µM [inhibitor, partial curve, poor fit]	
Cn1c2ccccc2c2cc(/C=N/NC(=O)c3cc(O)ccc3O)ccc21	inconclusive: 28.2 µM [inhibitor, single point]	
CNCc1ccccc1OCc1ccc(F)cc1	inconclusive: 35.5 µM [inhibitor, single point]	
CCOc1ccc(C(C(=O)NC2CCCC2)N(C(=O)CNC(=O)c2ccco2)c2cccnc2)cc1 (stereo unspecified)	inconclusive: 15.8 µM [activator, single point]	
O=C(N/N=C/c1c(Cl)[nH]c2ccccc12)c1ccc2c(c1)OCCO2	inconclusive: 35.5 µM [inhibitor, single point]	
C=CCN(c1ccccc1)S(=O)(=O)c1cccc(C(=O)Nc2ncccc2O)c1	inconclusive: 35.5 µM [inhibitor, partial curve, poor fit]	
COC(=O)c1cn(NC(=O)Cc2cccc(C(F)(F)F)c2)c(=O)c2ccccc12		inconclusive: 4.22% [activator]
CCOC(=O)c1c(COC(=O)c2ccco2)nc2ccccc2[n+]1[O-]		inactive: -0.311%
C=CCn1c(=N)n(CC(=O)c2ccc(OC)cc2)c2ccccc21	inconclusive: 14.1 µM [activator, single point]	
c1cc(-c2cnn3nc(N4CCOCC4)ccc23)nc(NC2CC2)n1	inconclusive: 1.58 µM [inhibitor, single point]	
O=C1OC(NCc2cccnc2)(c2ccc(Cl)cc2)c2ccccc21 (stereo unspecified)	inconclusive: 35.5 µM [inhibitor, single point]	
CC(=O)NC(CC(C)C)C(=O)NC(Cc1ccccc1)C(N)=O (stereo unspecified)		inactive: 0.755%

5 compounds out of the list, sorted by SMILES length, smallest number first:
SMILES	Potency	activity change, negative = inhibition
O=C(C(=Cc1ccccc1)CN1CCCCC1)c1ccccc1	active: 3.55 µM	
O=C1OC(NCc2cccnc2)(c2ccc(Cl)cc2)c2ccccc21 (stereo unspecified)	inconclusive: 35.5 µM [inhibitor, single point]	
c1cc(-c2cnn3nc(N4CCOCC4)ccc23)nc(NC2CC2)n1	inconclusive: 1.58 µM [inhibitor, single point]	
CC12CCC(O)CC1=CCC1C2CCC2(C)C(c3ccn[nH]3)CCC12 (stereo unspecified)	inconclusive: 12.6 µM [inhibitor, partial curve, poor fit]	
CCOc1ccc(-c2nc(SCC(=O)Nc3ccc4c(c3)OCCO4)c(-c3ccc(F)cc3)[nH]2)cc1		inactive: -27.2% [at 46.1 µM]
